From publication PMC4158885
The comparison behind a weaker result is the experiment's own reference, which may not be listed here. Tags and fusion partners may be left off the protein sequences shown.

Biological target: T1, scPan3 zinc finger (Saccharomyces cerevisiae) (UniProt P36102)
T1 sequence (looked up): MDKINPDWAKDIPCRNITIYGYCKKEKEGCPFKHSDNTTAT
Assay: NMR chemical shift perturbation
Details: Zn2+, small changes; NMR: 150 uM protein, 150 uM RNA (HSQC); recombinant protein; residues 1-41; protein details: lipoyl domain/His fusion removed by TEV

GGGGGGGGGGGGGGG [G15 RNA (NMR)]
binding result: binds more weakly
